# ± gives the standard deviation of the averaged measurements. Repeats in this data set agree poorly, so a single value says little.
# Sequences of proteins named here, by UniProt entry; tags and fusion partners are left off. A change or cut given only in a name is not applied to a line headed by its entry.
# UniProt Q9NR12, whole entry, looked up: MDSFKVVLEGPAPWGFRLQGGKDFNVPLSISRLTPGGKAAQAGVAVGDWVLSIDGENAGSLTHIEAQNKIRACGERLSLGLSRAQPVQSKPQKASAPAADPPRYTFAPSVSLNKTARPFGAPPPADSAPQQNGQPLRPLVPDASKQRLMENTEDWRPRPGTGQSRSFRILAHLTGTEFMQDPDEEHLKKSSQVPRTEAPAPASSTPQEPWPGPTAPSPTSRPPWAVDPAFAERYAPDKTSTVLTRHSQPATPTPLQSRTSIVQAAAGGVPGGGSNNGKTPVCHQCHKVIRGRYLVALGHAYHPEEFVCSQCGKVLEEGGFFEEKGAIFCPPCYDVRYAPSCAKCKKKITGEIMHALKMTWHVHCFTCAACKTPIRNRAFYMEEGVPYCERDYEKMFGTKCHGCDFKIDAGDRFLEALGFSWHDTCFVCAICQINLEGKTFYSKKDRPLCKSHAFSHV
# UniProt Q9NYF8, whole entry, looked up: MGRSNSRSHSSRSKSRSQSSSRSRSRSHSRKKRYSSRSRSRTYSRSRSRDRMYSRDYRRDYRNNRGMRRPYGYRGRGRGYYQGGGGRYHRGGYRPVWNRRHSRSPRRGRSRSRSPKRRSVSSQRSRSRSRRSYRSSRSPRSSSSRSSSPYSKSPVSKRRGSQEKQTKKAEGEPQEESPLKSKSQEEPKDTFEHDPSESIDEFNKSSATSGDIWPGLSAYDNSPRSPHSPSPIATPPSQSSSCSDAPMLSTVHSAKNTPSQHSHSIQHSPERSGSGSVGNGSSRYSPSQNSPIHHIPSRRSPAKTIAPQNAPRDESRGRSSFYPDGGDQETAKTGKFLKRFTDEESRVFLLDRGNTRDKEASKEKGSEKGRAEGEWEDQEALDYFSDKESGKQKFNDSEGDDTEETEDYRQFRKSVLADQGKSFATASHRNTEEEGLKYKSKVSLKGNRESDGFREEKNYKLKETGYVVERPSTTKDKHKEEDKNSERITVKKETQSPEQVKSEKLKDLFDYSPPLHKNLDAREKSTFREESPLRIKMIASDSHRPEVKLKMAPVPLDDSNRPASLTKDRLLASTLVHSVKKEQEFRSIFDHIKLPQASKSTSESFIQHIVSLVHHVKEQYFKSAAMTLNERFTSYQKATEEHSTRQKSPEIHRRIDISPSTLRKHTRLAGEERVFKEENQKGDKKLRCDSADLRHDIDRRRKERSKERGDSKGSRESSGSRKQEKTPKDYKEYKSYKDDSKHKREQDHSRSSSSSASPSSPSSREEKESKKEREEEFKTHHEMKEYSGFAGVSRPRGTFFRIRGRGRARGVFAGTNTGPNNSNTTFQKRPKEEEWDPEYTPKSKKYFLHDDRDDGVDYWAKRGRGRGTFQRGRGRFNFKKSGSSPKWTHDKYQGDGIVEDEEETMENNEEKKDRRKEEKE
# UniProt Q9NYV4, whole entry, looked up: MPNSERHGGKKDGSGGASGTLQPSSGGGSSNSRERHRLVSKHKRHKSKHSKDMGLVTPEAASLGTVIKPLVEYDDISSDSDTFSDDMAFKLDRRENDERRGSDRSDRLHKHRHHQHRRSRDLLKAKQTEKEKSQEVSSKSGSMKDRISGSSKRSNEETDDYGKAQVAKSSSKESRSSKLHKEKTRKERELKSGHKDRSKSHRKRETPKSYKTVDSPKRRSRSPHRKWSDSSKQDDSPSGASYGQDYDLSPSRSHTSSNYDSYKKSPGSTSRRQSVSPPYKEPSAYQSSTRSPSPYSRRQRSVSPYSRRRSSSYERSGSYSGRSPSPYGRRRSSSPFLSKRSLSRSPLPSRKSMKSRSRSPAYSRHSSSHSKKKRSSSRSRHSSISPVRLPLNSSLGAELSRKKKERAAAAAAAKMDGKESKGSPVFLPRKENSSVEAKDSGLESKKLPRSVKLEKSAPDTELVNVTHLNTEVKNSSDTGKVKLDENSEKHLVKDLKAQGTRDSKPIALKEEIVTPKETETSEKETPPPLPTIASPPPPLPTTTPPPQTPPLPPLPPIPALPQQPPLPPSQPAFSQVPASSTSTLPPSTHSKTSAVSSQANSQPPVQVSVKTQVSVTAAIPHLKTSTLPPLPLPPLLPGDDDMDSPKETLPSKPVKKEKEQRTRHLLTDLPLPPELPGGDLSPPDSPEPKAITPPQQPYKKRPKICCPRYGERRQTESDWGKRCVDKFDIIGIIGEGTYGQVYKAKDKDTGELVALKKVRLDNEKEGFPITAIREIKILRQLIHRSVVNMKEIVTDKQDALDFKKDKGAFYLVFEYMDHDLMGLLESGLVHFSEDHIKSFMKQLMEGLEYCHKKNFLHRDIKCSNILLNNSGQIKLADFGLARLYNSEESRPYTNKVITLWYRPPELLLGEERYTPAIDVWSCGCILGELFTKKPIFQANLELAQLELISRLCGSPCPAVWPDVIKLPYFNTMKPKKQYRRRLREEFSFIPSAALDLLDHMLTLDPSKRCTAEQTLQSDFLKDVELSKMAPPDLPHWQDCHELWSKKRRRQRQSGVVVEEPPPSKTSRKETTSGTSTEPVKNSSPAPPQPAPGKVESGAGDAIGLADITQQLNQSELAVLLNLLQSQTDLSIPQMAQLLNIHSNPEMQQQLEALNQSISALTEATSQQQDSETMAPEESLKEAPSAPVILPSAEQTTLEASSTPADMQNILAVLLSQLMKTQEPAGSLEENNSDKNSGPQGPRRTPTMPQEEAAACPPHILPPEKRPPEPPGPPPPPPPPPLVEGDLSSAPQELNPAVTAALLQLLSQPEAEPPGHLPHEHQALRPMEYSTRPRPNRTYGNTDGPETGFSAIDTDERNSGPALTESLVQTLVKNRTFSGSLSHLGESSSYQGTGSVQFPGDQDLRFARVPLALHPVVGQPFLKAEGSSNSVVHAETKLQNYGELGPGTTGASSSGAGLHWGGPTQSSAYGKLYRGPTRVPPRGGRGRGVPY
# UniProt Q9P2Q2: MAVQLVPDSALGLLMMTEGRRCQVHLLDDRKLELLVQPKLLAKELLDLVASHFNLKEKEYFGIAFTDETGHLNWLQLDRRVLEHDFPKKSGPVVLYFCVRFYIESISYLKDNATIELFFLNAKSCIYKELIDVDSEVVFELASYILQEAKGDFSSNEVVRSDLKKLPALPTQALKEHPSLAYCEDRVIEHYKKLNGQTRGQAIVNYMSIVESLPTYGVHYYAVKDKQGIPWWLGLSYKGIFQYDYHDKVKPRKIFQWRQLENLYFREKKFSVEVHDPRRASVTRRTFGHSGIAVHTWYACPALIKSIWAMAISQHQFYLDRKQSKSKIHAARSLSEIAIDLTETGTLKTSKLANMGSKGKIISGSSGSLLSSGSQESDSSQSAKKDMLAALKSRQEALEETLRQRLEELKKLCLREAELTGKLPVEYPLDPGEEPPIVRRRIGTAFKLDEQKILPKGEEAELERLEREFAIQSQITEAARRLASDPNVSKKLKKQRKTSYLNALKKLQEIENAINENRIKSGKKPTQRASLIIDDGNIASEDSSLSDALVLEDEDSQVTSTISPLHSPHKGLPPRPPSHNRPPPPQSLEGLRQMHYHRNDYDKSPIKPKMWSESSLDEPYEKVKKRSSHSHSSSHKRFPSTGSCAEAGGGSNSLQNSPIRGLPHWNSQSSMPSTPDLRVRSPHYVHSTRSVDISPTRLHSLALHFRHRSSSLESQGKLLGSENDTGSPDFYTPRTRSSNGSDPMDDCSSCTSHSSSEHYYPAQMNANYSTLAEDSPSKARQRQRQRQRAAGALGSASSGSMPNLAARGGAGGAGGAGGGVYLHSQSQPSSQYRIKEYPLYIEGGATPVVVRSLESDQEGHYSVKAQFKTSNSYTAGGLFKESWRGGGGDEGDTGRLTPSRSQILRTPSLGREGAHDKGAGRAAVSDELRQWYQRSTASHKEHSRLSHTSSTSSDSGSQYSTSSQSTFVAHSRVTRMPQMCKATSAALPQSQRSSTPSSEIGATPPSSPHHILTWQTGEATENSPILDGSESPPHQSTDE
# UniProt Q9UER7, whole entry, looked up: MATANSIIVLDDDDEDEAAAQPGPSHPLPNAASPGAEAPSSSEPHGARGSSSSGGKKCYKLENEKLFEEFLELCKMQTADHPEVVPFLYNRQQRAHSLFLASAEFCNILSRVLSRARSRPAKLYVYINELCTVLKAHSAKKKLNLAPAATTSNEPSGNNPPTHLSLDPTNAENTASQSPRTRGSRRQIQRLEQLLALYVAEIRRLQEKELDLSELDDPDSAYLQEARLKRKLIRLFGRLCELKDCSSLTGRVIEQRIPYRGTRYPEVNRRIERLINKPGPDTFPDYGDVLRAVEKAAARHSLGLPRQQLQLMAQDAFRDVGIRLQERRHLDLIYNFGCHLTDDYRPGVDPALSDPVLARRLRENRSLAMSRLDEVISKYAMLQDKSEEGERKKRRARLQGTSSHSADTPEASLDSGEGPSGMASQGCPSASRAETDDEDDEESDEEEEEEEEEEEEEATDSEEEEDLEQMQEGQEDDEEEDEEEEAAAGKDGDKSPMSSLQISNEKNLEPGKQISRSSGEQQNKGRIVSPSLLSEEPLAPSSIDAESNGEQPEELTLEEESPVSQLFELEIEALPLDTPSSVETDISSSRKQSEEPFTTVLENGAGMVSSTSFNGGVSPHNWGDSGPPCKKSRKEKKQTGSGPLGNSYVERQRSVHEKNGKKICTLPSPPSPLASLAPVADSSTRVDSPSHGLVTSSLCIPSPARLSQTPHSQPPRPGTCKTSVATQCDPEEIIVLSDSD
# UniProt Q9ULJ3: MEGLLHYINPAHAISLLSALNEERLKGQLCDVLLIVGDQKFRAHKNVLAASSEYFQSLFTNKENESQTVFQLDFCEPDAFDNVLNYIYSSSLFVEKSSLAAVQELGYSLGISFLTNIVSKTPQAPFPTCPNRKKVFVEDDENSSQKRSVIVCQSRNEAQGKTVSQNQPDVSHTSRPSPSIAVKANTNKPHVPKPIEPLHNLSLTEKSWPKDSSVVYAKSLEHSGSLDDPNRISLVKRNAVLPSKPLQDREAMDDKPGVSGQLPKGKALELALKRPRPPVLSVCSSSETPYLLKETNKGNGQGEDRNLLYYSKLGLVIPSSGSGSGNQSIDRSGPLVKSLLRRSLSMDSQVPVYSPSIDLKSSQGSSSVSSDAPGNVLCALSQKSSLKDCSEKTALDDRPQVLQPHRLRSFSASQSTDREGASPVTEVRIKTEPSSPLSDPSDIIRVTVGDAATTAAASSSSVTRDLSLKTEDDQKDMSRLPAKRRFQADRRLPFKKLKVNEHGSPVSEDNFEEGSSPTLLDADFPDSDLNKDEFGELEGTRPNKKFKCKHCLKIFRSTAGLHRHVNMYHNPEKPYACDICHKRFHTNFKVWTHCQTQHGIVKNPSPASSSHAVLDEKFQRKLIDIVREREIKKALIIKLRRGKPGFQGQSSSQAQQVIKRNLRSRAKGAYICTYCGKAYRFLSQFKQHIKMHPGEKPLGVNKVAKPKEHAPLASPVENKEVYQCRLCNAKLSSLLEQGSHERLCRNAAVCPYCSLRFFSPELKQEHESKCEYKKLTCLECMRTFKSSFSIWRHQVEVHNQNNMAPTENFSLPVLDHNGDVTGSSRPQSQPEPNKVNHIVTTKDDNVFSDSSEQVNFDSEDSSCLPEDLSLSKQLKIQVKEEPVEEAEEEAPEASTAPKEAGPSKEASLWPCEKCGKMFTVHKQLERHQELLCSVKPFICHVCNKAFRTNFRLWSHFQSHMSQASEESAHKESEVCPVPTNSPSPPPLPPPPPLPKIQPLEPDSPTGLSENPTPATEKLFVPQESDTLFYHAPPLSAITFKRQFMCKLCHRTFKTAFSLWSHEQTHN
# UniProt Q9UPN7: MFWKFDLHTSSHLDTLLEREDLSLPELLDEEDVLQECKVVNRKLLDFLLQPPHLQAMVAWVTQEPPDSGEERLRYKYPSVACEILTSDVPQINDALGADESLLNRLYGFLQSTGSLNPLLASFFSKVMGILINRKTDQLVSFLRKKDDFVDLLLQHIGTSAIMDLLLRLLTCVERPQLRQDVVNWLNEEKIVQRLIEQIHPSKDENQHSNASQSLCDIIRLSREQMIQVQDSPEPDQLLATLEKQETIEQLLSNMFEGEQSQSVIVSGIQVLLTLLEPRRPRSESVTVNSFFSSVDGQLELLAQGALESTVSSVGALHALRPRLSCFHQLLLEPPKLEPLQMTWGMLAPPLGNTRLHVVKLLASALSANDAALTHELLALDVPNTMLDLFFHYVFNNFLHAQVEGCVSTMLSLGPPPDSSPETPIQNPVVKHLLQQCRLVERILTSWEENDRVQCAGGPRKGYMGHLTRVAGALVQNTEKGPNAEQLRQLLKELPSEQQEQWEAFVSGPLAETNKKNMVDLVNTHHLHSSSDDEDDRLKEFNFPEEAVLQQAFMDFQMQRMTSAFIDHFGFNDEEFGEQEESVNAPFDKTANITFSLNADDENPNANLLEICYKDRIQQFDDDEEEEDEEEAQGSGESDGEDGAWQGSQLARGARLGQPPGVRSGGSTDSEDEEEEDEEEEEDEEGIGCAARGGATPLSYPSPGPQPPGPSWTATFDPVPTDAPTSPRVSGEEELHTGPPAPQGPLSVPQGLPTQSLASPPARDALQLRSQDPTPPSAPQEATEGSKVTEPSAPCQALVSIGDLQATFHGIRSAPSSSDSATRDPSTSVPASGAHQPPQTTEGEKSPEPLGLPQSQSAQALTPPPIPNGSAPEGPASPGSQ
# Compound: CC[C@@H](C)Nc1cc(C(=O)N[C@H]2C[C@H]3CC[C@@H](C2)N3c2ccc(C(=O)C3CC3)cn2)c(C)cc1C(N)=O [XL888]
# Test: phosphopeptide melting temperature shift (XL888 minus DMSO); higher = stabilised by drug treatment
# Conditions: 100 µM; treatment time 2 h; layout: intact cells; SK-Mel 28
# Protocol: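 Phospho-TPP in intact SK-Mel 28 cells treated with 100 uM XL888 or DMSO for 2 h, heated at 10 temperatures (37-67 C) for 3 min, soluble fraction TMT10plex-labelled and TiO2 phospho-enriched. Melting curves were fitted per phosphopeptide; the value is the melting point difference (drug minus vehicle) in each of two biological replicates.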
row,Target,phosphopeptide melting temperature shift
1,UniProt Q9NQC3-5_phosphosite_188 (phosphosite position: 188),0.174 °C
2,UniProt Q9NR12-2_phosphosite_180 (phosphosite position: 180),0.177 °C
3,UniProt Q9NR30-2_phosphosite_21 (phosphosite position: 21),0.958 ± 0.23 °C
4,UniProt Q9NR30-2_phosphosite_53 (phosphosite position: 53),0.909 °C
5,UniProt Q9NRA8-2_phosphosite_74 (phosphosite position: 74),0.427 ± 0.12 °C
6,UniProt Q9NRA8-2_phosphosite_77 (phosphosite position: 77),0.319 ± 0.27 °C
7,UniProt Q9NRA8-2_phosphosite_78 (phosphosite position: 78),-0.178 ± 0.97 °C
8,UniProt Q9NRA8-2_phosphosite_389 (phosphosite position: 389),1.49 °C
9,UniProt Q9NRL2-2_phosphosite_699 (phosphosite position: 699),0.501 °C
10,UniProt Q9NRY4_phosphosite_980 (phosphosite position: 980),0.985 ± 0.26 °C
11,UniProt Q9NS87-4_phosphosite_568 (phosphosite position: 568),-0.25 °C
12,UniProt Q9NTI5-2_phosphosite_1283 (phosphosite position: 1283),0.498 ± 0.099 °C
13,UniProt Q9NTJ3-2_phosphosite_22 (phosphosite position: 22),-0.192 ± 0.37 °C
14,UniProt Q9NTJ3-2_phosphosite_28 (phosphosite position: 28),-1.48 ± 0.69 °C
15,UniProt Q9NVN3-4_phosphosite_228 (phosphosite position: 228),0.72 °C
16,UniProt Q9NVN3-4_phosphosite_233 (phosphosite position: 233),0.72 °C
17,UniProt Q9NVS9-2_phosphosite_146 (phosphosite position: 146),0.485 °C
18,UniProt Q9NVU0-3_phosphosite_503 (phosphosite position: 503),-1.95 °C
19,UniProt Q9NVU7-2_phosphosite_488 (phosphosite position: 488),0.717 ± 1.8 °C
20,UniProt Q9NWK9-2_phosphosite_25 (phosphosite position: 25),-0.346 °C
21,UniProt Q9NWS9_phosphosite_137 (phosphosite position: 137),2.65 °C
22,UniProt Q9NYB9-2_phosphosite_301 (phosphosite position: 301),2.14 °C
23,UniProt Q9NYF8-3_phosphosite_220 (phosphosite position: 220),0.345 ± 1.5 °C
24,UniProt Q9NYF8-3_phosphosite_283 (phosphosite position: 283),3.54 °C
25,UniProt Q9NYF8-3_phosphosite_288 (phosphosite position: 288),1.4 °C
26,UniProt Q9NYV4-2_phosphosite_385 (phosphosite position: 385),1.12 ± 1.5 °C

row,Target,phosphopeptide melting temperature shift
1,UniProt Q9NYV4-2_phosphosite_644 (phosphosite position: 644),-0.194 ± 0.62 °C
2,UniProt Q9NYV4-2_phosphosite_681 (phosphosite position: 681),-0.222 ± 0.32 °C
3,UniProt Q9NZB2-4_phosphosite_383 (phosphosite position: 383),-2.69 ± 2.1 °C
4,UniProt Q9NZH5-2_phosphosite_165 (phosphosite position: 165),4.18 °C
5,UniProt Q9NZM3-4_phosphosite_889 (phosphosite position: 889),1.99 ± 0.62 °C
6,UniProt Q9P0K7-4_phosphosite_638 (phosphosite position: 638),-0.402 ± 0.32 °C
7,UniProt Q9P0V3-2_phosphosite_296 (phosphosite position: 296),-0.414 ± 2.5 °C
8,UniProt Q9P1Y6-2_phosphosite_1229 (phosphosite position: 1229),3.61 °C
9,UniProt Q9P2D0-2_phosphosite_1045 (phosphosite position: 1045),3.8 °C
10,UniProt Q9P2K5-4_phosphosite_17 (phosphosite position: 17),7.24 °C
11,UniProt Q9P2Q2_phosphosite_800 (phosphosite position: 800),0.793 °C
12,UniProt Q9P2R6-2_phosphosite_712 (phosphosite position: 712),3.08 °C
13,UniProt Q9P287-4_phosphosite_42 (phosphosite position: 42),0.272 ± 0.46 °C
14,UniProt Q9UBF8-2_phosphosite_496 (phosphosite position: 496),0.871 °C
15,UniProt Q9UBL3-2_phosphosite_496 (phosphosite position: 496),0.985 ± 1.4 °C
16,UniProt Q9UDT6-2_phosphosite_888 (phosphosite position: 888),0.829 °C
17,UniProt Q9UDY2-3_phosphosite_221 (phosphosite position: 221),-0.00426 °C
18,UniProt Q9UER7-3_phosphosite_420 (phosphosite position: 420),1.29 °C
19,UniProt Q9UET6-2_phosphosite_269 (phosphosite position: 269),0.348 ± 0.94 °C
20,UniProt Q9UEW8-2_phosphosite_366 (phosphosite position: 366),1.34 °C
21,UniProt Q9UEY8-2_phosphosite_641 (phosphosite position: 641),-1.47 °C
22,UniProt Q9UEY8-2_phosphosite_645 (phosphosite position: 645),2.42 °C
23,UniProt Q9UEY8-2_phosphosite_649 (phosphosite position: 649),1.63 ± 1.9 °C
24,UniProt Q9UGI8-2_phosphosite_159 (phosphosite position: 159),1.3 ± 0.015 °C
25,UniProt Q9UGR2-2_phosphosite_217 (phosphosite position: 217),-1.94 ± 3.2 °C
26,UniProt Q9UGR2-2_phosphosite_223 (phosphosite position: 223),-0.737 °C

# Rewritten with tabs: entries from further up
row	Target	phosphopeptide melting temperature shift
12	UniProt Q9NTI5-2_phosphosite_1283 (phosphosite position: 1283)	0.498 ± 0.099 °C
2	UniProt Q9NYV4-2_phosphosite_681 (phosphosite position: 681)	-0.222 ± 0.32 °C
10	UniProt Q9P2K5-4_phosphosite_17 (phosphosite position: 17)	7.24 °C
13	UniProt Q9P287-4_phosphosite_42 (phosphosite position: 42)	0.272 ± 0.46 °C

# More entries follow:

row,Target,phosphopeptide melting temperature shift
1,UniProt Q9UGR2-2_phosphosite_224 (phosphosite position: 224),-2.42 ± 1.7 °C
2,UniProt Q9UHR5-2_phosphosite_18 (phosphosite position: 18),5.4 ± 0.15 °C
3,UniProt Q9UHR5-2_phosphosite_22 (phosphosite position: 22),5.4 ± 0.15 °C
4,UniProt Q9UK76-3_phosphosite_85 (phosphosite position: 85),1.97 °C
5,UniProt Q9UKM9-2_phosphosite_272 (phosphosite position: 272),1.52 ± 1.3 °C
6,UniProt Q9ULJ3_phosphosite_345 (phosphosite position: 345),1.53 ± 0.58 °C
7,UniProt Q9ULJ3_phosphosite_435 (phosphosite position: 435),1.32 ± 1.1 °C
8,UniProt Q9ULJ3_phosphosite_504 (phosphosite position: 504),-2.01 °C
9,UniProt Q9ULJ3_phosphosite_714 (phosphosite position: 714),-1.25 °C
10,UniProt Q9ULL8-2_phosphosite_183 (phosphosite position: 183),0.107 °C
11,UniProt Q9UMZ2-4_phosphosite_774 (phosphosite position: 774),0.156 °C
12,UniProt Q9UMZ2-4_phosphosite_776 (phosphosite position: 776),0.878 °C
13,UniProt Q9UMZ2-4_phosphosite_777 (phosphosite position: 777),0.156 °C
14,UniProt Q9UNS1-2_phosphosite_1120 (phosphosite position: 1120),3.44 °C
15,UniProt Q9UPN3-4_phosphosite_1376 (phosphosite position: 1376),-0.557 °C
16,UniProt Q9UPN3-4_phosphosite_1860 (phosphosite position: 1860),1.61 °C
17,UniProt Q9UPN3-4_phosphosite_2433 (phosphosite position: 2433),0.783 ± 0.27 °C
18,UniProt Q9UPN3-4_phosphosite_5242 (phosphosite position: 5242),0.954 °C
19,UniProt Q9UPN4-3_phosphosite_78 (phosphosite position: 78),-1.25 °C
20,UniProt Q9UPN4-3_phosphosite_381 (phosphosite position: 381),5.01 °C
21,UniProt Q9UPN7_phosphosite_530 (phosphosite position: 530),2.22 ± 1.2 °C
22,UniProt Q9UPN7_phosphosite_531 (phosphosite position: 531),0.378 °C
23,UniProt Q9UPN7_phosphosite_759 (phosphosite position: 759),-0.0189 ± 0.46 °C
24,UniProt Q9UPN9-2_phosphosite_1085 (phosphosite position: 1085),-1.03 ± 1.2 °C

# Source: the supplement of paper PMC5836539
